Broadly, the IC50 is the concentration needed to halve the response being measured. Low readings indicate higher potency, high ones lower potency.

The chains behind the UniProt entries cited, without tags or fusion partners. Residues count along the entry.
UniProt P00746, 26-253 limits assumed: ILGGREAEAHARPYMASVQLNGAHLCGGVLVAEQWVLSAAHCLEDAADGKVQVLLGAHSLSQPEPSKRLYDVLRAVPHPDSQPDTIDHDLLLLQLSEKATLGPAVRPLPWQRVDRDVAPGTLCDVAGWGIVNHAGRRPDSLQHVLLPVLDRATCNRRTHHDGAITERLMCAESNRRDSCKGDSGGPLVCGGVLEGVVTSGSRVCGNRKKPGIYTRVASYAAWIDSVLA

The match of structure and compound is tentative.

The experiment deals with Human Factor D (Homo sapiens, UniProt P00746). Put plainly: Human Factor D assay (Example 8). The following applies: Table 1; Human Factor D 80 nM, substrate Z-L-Lys-SBzl. It counts as biochemical.

Molecule `CC(=O)c1nn(CC(=O)N2C[C@H](F)C[C@H]2C(=O)Nc2cccc(Br)n2)c2c1ccn1cc(-c3cccc(Cl)c3)nc21` had an IC50 of less than 1000 nM.
